Assay results from patent US20070155806A1 (The University of Tokyo, priority 2005, published 2007).
Some of these results come from one statement about several compounds together. At least one compound was matched to its structure with a doubt left.

Sequences of proteins named here, by UniProt entry; tags and fusion partners are left off.
UniProt P08659, whole entry, species assumed: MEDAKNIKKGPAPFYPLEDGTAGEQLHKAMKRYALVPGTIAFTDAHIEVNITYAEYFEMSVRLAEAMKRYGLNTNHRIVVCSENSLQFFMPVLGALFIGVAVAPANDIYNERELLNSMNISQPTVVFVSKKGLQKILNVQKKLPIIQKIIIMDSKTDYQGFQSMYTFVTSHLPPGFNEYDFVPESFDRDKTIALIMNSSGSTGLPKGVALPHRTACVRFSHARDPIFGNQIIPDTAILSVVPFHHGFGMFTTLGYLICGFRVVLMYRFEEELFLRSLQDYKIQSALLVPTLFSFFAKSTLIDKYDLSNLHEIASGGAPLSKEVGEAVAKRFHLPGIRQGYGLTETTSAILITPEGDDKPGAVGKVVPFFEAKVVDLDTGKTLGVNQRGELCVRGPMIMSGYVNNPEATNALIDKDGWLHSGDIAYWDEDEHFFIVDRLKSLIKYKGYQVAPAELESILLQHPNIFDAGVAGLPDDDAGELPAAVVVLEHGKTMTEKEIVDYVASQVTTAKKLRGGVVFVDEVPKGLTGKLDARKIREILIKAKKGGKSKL

Tests used:
luciferase (firefly) [1] = biological target: T1, luciferase (firefly) (Photinus pyralis, UniProt P08659); assay: Measurement of luminescence spectra (Example 2, FIG. 1); assay type: biochemical; settings: spectra standardized on peak top
luciferase (firefly) [2] = biological target: T1, luciferase (firefly); assay: Luminescence characteristics with firefly luciferase (Example 3); assay type: biochemical; settings: 12 μmol/L substrate, 20 μg/mL luciferase, HEPES pH 7.7
Description: The measurement was performed by using Fluorescence Spectrophotometer F-4500 (Hitachi).

Row | Structure (SMILES) | luminescence spectra shift compared with luciferin (luciferase (firefly) [1]) | initial intensity (luciferase (firefly) [2])
1 | CN(C)c1ccc2nc(C3=NC(C(=O)O)CS3)sc2c1 (stereo not shown) [Compound 11, N,N-dimethylaminoluciferin] | significantly shifted to the long wavelength side | lower than that of aminoluciferin
2 | O=C(O)C1CSC(c2nc3ccc(NCCCc4ccccc4)cc3s2)=N1 (stereo not shown) [Compound 14, N-phenylpropylaminoluciferin] | significantly shifted to the long wavelength side | lower than that of aminoluciferin
3 | O=C(O)C1CSC(c2nc3ccc(NCCc4ccccc4)cc3s2)=N1 (stereo not shown) [Compound 13, N-phenethylaminoaminoluciferin] | significantly shifted to the long wavelength side | lower than that of aminoluciferin
4 | O=C(O)C1CSC(c2nc3ccc(NCc4ccccc4)cc3s2)=N1 (stereo not shown) [Compound 12, N-benzylaminoluciferin] | significantly shifted to the long wavelength side | lower than that of aminoluciferin
5 | CNc1ccc2nc(C3=NC(C(=O)O)CS3)sc2c1 (stereo not shown) [Compound 10, N-methylaminoluciferin] | significantly shifted to the long wavelength side | lower than that of aminoluciferin
